Assay results reported in the supplement of paper PMC10849652.
Some of the results follow.

Sequences of proteins named here, by UniProt entry; tags and fusion partners are left off. A change or cut given only in a name is not applied to a line headed by its entry.
UniProt Q9H633: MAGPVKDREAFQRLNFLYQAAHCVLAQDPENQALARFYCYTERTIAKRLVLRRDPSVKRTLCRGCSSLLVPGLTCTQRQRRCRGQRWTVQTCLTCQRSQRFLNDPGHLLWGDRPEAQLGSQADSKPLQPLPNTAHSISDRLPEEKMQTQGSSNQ
UniProt P15927: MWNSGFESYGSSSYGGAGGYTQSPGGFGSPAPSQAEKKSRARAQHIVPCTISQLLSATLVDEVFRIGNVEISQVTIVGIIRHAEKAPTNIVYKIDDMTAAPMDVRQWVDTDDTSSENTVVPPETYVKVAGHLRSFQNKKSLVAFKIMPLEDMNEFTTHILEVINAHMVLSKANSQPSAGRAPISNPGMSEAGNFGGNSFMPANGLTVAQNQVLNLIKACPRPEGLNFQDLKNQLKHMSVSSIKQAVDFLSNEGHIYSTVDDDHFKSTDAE
UniProt Q969K3: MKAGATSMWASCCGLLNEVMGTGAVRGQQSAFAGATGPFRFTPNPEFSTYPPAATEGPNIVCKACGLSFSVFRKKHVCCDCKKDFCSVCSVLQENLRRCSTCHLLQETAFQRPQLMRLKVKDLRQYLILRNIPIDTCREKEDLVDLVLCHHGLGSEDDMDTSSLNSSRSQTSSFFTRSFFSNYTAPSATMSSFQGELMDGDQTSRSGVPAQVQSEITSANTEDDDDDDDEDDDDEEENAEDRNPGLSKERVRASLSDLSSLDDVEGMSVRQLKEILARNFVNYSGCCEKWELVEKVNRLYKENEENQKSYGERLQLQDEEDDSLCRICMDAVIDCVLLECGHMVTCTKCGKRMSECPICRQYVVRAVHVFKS
UniProt Q5VZM2, whole entry, looked up: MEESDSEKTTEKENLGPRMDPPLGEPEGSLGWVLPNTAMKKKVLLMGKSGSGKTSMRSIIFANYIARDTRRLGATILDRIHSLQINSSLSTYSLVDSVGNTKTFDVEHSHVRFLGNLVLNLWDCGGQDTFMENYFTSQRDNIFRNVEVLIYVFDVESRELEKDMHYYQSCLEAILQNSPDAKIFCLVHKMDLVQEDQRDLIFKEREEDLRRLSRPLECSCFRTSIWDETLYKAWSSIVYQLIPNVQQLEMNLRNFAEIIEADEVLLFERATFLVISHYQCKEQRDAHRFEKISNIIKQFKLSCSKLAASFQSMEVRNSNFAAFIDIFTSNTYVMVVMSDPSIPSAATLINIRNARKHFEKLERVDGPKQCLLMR
UniProt Q9UBF6, whole entry, looked up: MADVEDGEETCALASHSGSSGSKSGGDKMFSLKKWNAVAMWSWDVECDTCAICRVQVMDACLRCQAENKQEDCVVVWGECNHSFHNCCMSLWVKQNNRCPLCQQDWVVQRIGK
UniProt P04843: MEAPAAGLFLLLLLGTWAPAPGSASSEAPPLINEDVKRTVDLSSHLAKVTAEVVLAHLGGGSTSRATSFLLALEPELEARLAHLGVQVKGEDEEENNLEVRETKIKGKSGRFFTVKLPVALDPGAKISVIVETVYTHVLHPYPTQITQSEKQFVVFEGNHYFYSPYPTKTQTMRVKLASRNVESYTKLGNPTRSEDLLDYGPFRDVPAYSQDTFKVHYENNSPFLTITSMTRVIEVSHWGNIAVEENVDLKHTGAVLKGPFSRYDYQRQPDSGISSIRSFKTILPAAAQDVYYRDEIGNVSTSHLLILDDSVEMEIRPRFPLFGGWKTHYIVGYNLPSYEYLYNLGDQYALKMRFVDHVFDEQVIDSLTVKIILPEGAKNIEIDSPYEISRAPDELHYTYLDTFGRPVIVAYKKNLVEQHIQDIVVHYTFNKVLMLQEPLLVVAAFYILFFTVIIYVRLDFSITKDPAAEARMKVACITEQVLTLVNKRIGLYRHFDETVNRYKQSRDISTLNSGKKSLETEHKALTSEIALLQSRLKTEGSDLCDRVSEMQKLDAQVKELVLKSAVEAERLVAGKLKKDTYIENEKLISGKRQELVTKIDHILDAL
UniProt Q92901: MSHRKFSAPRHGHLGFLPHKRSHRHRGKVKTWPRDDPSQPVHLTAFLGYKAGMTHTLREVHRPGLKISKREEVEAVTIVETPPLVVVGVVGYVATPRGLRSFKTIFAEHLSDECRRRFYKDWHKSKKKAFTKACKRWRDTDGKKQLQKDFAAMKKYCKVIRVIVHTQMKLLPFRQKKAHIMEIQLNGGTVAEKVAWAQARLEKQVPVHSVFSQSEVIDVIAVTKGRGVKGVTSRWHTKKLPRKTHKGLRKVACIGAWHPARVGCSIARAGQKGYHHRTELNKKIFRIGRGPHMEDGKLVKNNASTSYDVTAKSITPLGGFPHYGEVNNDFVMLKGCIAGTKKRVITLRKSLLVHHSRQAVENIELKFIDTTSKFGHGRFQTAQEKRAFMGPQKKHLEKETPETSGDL
UniProt P13489: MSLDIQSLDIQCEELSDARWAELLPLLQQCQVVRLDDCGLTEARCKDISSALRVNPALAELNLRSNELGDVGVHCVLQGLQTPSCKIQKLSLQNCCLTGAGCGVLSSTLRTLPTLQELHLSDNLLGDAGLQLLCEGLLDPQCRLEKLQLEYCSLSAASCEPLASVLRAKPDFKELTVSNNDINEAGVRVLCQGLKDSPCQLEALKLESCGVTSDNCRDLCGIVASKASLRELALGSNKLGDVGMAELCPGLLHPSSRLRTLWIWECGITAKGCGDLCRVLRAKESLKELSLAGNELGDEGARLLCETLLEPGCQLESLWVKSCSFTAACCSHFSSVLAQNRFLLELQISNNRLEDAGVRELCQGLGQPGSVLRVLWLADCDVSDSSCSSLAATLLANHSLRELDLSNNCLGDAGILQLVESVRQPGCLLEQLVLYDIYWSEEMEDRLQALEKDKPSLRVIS
UniProt P27694, whole entry, looked up: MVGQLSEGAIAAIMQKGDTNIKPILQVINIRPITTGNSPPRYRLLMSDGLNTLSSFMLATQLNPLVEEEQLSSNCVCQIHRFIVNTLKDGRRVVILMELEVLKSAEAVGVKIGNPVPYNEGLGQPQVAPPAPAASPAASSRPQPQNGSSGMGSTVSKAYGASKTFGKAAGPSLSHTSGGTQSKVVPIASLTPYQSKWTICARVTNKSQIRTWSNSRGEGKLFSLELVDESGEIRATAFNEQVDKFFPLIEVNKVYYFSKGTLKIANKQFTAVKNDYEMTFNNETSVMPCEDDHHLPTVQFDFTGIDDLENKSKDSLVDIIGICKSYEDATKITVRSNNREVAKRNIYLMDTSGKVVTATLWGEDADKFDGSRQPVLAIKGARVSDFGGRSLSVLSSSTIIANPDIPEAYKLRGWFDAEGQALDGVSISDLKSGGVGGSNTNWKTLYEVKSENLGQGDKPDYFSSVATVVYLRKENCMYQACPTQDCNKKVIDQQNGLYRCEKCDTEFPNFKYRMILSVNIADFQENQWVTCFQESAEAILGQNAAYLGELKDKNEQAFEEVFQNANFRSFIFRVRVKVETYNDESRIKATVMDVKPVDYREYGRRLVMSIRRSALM
UniProt P78346: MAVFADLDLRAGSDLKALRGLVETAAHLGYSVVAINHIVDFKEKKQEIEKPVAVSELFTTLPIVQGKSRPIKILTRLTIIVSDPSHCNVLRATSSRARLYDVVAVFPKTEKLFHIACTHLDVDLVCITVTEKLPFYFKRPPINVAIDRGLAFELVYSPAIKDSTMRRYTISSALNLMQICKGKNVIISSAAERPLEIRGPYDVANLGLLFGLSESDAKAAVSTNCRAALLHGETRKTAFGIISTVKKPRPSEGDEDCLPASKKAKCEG
UniProt Q15418, whole entry, looked up: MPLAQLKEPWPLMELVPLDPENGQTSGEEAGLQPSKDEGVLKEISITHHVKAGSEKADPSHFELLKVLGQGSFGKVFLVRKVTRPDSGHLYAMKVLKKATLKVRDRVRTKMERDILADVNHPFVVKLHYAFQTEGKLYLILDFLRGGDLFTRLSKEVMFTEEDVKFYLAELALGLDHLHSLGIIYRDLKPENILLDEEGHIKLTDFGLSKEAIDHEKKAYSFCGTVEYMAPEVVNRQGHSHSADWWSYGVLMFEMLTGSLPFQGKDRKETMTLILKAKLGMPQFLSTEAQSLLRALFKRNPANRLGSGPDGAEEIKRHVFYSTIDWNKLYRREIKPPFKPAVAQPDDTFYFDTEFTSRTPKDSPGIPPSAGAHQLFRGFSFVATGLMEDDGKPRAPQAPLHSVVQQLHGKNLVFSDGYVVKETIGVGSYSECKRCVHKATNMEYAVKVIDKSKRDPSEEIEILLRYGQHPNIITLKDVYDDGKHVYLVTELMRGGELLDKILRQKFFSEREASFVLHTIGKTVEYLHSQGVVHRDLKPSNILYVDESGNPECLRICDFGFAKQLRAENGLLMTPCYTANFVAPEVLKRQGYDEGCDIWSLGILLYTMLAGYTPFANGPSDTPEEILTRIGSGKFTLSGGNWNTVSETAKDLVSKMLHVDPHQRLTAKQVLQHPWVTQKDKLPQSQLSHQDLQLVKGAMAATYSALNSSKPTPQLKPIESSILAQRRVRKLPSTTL
UniProt Q9H4A4: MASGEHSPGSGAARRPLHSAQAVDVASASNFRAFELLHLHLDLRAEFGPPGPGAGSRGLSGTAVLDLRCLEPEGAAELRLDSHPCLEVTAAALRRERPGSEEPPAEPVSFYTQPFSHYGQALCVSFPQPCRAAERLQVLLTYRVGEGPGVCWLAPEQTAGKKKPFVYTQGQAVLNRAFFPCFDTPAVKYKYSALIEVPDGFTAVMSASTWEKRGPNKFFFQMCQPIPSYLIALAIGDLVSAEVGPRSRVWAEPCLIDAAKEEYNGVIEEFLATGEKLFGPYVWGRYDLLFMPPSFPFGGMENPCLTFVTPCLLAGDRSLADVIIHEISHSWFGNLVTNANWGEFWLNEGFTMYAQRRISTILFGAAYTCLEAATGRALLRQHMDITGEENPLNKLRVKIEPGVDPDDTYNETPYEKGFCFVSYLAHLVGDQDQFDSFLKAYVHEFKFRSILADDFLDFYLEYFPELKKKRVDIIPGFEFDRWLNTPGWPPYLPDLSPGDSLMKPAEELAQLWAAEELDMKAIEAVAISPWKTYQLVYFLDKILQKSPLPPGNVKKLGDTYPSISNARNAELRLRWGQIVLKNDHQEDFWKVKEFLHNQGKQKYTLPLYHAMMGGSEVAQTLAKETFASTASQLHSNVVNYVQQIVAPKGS
UniProt Q96S38: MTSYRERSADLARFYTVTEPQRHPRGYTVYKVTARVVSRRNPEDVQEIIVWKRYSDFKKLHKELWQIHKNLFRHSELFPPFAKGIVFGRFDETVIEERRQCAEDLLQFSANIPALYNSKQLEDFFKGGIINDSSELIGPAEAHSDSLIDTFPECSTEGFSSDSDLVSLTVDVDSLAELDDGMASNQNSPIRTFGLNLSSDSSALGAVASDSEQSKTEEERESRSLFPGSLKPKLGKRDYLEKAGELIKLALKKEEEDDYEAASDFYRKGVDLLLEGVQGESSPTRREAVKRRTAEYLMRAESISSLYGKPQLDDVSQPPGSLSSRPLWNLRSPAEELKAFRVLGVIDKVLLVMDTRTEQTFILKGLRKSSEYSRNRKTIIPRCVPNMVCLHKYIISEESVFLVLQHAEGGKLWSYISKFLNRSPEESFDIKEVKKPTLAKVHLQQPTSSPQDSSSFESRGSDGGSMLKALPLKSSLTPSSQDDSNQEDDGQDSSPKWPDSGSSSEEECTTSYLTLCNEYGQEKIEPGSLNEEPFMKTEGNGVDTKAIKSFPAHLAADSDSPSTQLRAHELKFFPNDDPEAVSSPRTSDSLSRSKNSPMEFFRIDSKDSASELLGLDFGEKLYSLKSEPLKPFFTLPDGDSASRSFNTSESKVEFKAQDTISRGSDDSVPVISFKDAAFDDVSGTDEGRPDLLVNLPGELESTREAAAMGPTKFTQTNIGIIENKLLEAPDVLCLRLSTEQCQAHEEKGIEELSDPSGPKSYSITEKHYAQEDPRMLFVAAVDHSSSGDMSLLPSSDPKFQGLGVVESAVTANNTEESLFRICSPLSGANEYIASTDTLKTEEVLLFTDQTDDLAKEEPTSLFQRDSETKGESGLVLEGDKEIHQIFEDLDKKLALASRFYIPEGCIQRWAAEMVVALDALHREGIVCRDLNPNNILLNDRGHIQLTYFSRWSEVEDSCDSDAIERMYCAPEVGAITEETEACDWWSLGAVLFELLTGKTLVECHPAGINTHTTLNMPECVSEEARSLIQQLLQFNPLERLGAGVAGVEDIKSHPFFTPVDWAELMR
UniProt O43148, whole entry, looked up: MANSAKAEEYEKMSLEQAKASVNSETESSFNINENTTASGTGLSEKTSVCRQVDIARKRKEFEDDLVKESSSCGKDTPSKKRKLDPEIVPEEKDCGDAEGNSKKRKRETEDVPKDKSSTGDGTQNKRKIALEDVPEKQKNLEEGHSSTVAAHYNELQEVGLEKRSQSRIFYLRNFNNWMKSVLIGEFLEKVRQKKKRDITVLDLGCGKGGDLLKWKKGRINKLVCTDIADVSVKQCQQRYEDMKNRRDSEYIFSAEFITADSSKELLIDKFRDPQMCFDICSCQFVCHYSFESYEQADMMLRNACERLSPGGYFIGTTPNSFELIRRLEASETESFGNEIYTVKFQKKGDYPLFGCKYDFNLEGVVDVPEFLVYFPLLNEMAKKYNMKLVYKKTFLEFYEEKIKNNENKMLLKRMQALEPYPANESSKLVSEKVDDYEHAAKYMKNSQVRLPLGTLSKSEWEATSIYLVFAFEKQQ

compound: C1CCN(C1)C(=O)NC2=CC=CC(=C2)NC3=NC=C(C(=N3)NCCC4=CN=CN4)Br; test: log2 fold change, soluble protein after heating vs DMSO (PISA); higher = thermal stabilisation; K562 cells, 10 uM, 30 min; active = over 0.2 and 3.5 SD of the protein, either way, in both replicates (recomputed)
Outline: (§1)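 Quantification of soluble protein used TMTpro 16plex LC-MS/MS, with channel sums equalised. Samples were the supernatant after 21,000xg for 90 min of pooled aliquots from K562 cells (2×10^6 cells/mL) treated with 10 μM compound for 30 min, heated for 3 min over 48°C-58°C, and extracted in PBS with 0.5% NP-40 at 4°C. Values, from duplicates, describe thermal stability against control samples on a log2 fold-change scale.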

log2 fold change, inactive:
RPP21 isoform 4 (UniProt Q9H633) -0.02, RPS4X (UniProt P62701) 0.076, RPS24 isoform 4 (UniProt P62847) 0.052, RPL23A (UniProt P62750) -0.001, RPS19 (UniProt P39019) 0.094, RPA2 isoform 3 (UniProt P15927) 0.052, RNF34 isoform 2 (UniProt Q969K3) -0.102, RPL3 (UniProt P39023) 0.056, RPL35 (UniProt P42766) 0.123, RNPS1 (UniProt Q15287) 0.048, RRAGB (UniProt Q5VZM2) -0.048, RNF7 (UniProt Q9UBF6) 0.022, RPN1 (UniProt P04843) 0.025, RPL8 (UniProt P62917) 0.084, RPL19 (UniProt P84098) 0.016, RPS17 (UniProt P08708) 0.023, RPS27A (UniProt P62979) 0.111

compound: C1CN(CCC1(CC2=CC=C(C=C2)Cl)N)C3=NC=NC4=C3C=CN4; test: as above
Outline: as §1

log2 fold change, inactive:
RPLP2 (UniProt P05387) -0.25, RPP38 (UniProt P78345) 0.027, RPL29 (UniProt P47914) -0.205, RPL36 (UniProt Q9Y3U8) -0.319, RPS18 (UniProt P62269) -0.144, RPS3 (UniProt P23396) -0.156, RPL3L (UniProt Q92901) -0.515, RPTOR (UniProt Q8N122) -0.027, RPL10 (UniProt P27635) -0.247, RNH1 (UniProt P13489) -0.003, RPA1 (UniProt P27694) -0.021, RPP30 isoform 2 (UniProt P78346) 0.047, RPS6KA1 isoform 2 (UniProt Q15418) 0.023, RNPEP (UniProt Q9H4A4) -0.016, RPS6KB1 (UniProt P23443) 0.118, RPL18A (UniProt Q02543) -0.346, RO60 (UniProt P10155) 0.023, RPS3A (UniProt P61247) -0.162, RPS6KA2 isoform 2 (UniProt Q15349) -0.004, RPL28 (UniProt P46779) -0.362, RPS12 (UniProt P25398) -0.05, RPS6KC1 (UniProt Q96S38) -0.048, RNMT isoform 2 (UniProt O43148) -0.047, RPP21 isoform 4 (UniProt Q9H633) -0.011, RPS4X (UniProt P62701) -0.221, RPS24 isoform 4 (UniProt P62847) -0.138, RPL23A (UniProt P62750) -0.172, RPS19 (UniProt P39019) -0.145, RPA2 isoform 3 (UniProt P15927) -0.021, RNF34 isoform 2 (UniProt Q969K3) 0, RPL3 (UniProt P39023) -0.426, RPL35 (UniProt P42766) -0.223, RNPS1 (UniProt Q15287) -0.118, RRAGB (UniProt Q5VZM2) 0.037, RNF7 (UniProt Q9UBF6) 0.069, RPN1 (UniProt P04843) -0.002, RPL8 (UniProt P62917) -0.375, RPL19 (UniProt P84098) -0.264, RPS17 (UniProt P08708) -0.099, RPS27A (UniProt P62979) -0.098
